# Numbering of substitutions follows the chain as printed. No constants are given. Whether binding was seen depends on the method and setting. Some entries that bind do so weakly or less than the wild type.
# Chains of the proteins cited; added tags and fusions are not shown. Lines headed by an entry give the natural chain unless they say otherwise; changes in a name come on top. A line that says so, or that is headed by a name, gives the form on record, which may keep a tag or linker.
# cynomolgus IL-17F homodimer, His-tagged (G7P4V0, form named): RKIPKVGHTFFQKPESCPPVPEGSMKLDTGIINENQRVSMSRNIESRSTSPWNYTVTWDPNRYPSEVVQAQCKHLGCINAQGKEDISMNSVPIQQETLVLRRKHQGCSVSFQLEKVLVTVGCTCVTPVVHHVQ
# T1: human IL-17A/IL-17F heterodimer (human) (UniProt Q16552+Q96PD4)
# T1 sequence (looked up) 1: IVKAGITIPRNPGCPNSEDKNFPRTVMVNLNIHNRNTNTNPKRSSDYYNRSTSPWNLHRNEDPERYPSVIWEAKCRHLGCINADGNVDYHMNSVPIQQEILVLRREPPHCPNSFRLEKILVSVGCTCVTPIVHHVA
# T1 sequence (looked up) 2: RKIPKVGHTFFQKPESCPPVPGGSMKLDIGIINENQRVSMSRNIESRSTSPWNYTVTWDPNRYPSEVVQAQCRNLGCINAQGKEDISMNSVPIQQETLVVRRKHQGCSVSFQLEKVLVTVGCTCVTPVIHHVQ
# B1: 11C5 antibody (antibody, V domains shown)
# VH: QVQLVQSGAEVKKPGASVKVSCKASGYTFTIYYLHWVRQAPGQGLEWMGIINPSGGRTNYAQKFQGRVTMTRDPSTNTVYMELSSLTSEDAAVYYCARGEFSSGWLDYWGQGTTVTVSS
# VL: DIQMTQSPSSVSASVGDRVTITCRASQGISSWLAWYQHKPGKAPKLLIYAASSLQSGVPSRFSGSGSGTDFTLTISSLQPEDFATYYCQQANSFPLTFGGGTKVEIK
# B2: 28B11 antibody (antibody, V domains shown)
# VH: QVQLVESGGGLVKPGGSLRLSCAASGFTFSNYYMTWIRQAPGKGLEWISYISSTGGNIYYADSVKGRFTISRDNAQNSLYLQMNSLRAEDTAVYYCARDGGVIISTAMFDYWGQGTTVTVSS
# VL: B1 VL with D1A, M4L, V11L, W32A, H38Q, A50D, Q55E, F62L, A91F, F94Y
# B3: 1F1 antibody (antibody, V domains shown)
# VH: EVQLLESGGGLVQPGGSLRLSCAASGFTFSSYVMSWVRQVPGKGLEWVSAISGRGGNTFYADSVKGRFTISRDNSKNTLYLQMDSLRAEDTAVYYCAKDDRRIAAGSFDYWGQGTTVTVSS
# VL: B1 VL with D1A, M4L, V11L, W32A, H38Q, A50D, A51V, Q55E, A91F, F94Y
# B4: 5D3 antibody (antibody, V domains shown)
# VH: EVQLVESGGGLVQPGRSLRLSCAASGFTFDDYAMHWVRQAPGKGLEWVSGISWNSGSRGYADSVKGRFTISRDNAKNSLYLQMNSLRAEDTALYYCAKDMVYALDVWGQGTTVTVSS
# VL: EIVLTQSPGTLSLSPGERATLSCRASQSFSGSYLAWYQQKPGQAPRLLIYDTSSRATGIPDRFSGSGSGTDFTLTISRLEPEDFAVYYCQQYGTWTFGQGTKVEIK
# Target: cynomolgus IL-17A/IL-17F heterodimer (cynomolgus)
# Test: FLISA, cytokine coated on polystyrene beads
row,binding,Binder
1,binds,B1
2,binds,B2
3,binds,B3
4,binds,B4

# Target: cynomolgus IL-17F homodimer, His-tagged (cynomolgus) (UniProt G7P4V0)
# Test: FLISA, cytokine coated on polystyrene beads
row,binding,Binder
1,binds,B1
2,binds,B2
3,binds,B3
4,binds,B4

# Target: T1, human IL-17A/IL-17F heterodimer (human)
# Test: FLISA, cytokine coated on polystyrene beads
row,binding,Binder
1,binds,B1
2,binds,B2
3,binds,B3
4,binds,B4
